No constants are given. Whether binding was seen depends on the method and setting. Some results given as binding are weak or reduced against the parent protein; the word gives no strength.
Biological target: PdeL EAL domain Y268C (PdeLEAL-3xFlag-StrepII) (E. coli) (UniProt P21514)
Experiment: cross-linking

Amino acid sequences for entries named in this document (tags omitted). A change or cut given only in a name is not applied to a line headed by its entry.
UniProt P21514, whole entry, looked up, stated change not applied: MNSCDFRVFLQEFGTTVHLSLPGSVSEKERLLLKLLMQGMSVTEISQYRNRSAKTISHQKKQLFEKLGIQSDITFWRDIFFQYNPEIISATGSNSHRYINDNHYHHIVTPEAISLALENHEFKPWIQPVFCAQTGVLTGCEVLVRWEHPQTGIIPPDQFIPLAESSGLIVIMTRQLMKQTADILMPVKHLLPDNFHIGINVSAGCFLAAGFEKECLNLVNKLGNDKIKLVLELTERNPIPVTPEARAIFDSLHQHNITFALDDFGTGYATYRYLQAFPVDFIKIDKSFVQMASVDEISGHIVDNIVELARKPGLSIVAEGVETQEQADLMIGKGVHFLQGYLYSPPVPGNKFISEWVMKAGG

binding: binds
Substance: PdeL EAL domain Y268C (PdeLEAL-3xFlag-StrepII) (from UniProt P21514 101-362) (domain or fragment)

Source: publication doi:10.1101/2021.10.01.462762 (bioRxiv, 2021)
